This is an account of results in PubChem BioAssay AID2685 (National Center for Advancing Translational Sciences (NCATS), 2010).

Some of the results follow. Shown are side measurements of this screen, not its main read-out; they come without a call. Compounds called inactive in the main read-out are mostly missing here. Potencies come from curve fits of mixed quality, noted in brackets.

The test is described as follows: qHTS Assay for Lipid Storage Modulators in Drosophila S3 Cells.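 For cell number change: cells counted by Cell Tracker Red CMTPX staining in the red channel.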 The following applies: BODIPY lipid droplet fluorescence, 18-24 h; for cell number change: measured here: cell count max response, cells fed with added oleic acid. The essentials: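 Laser-scanning cytometry quantifies lipid droplet accumulation (500–530 nm total intensity; droplet/cell object ratio) in oleic acid-fed (400 uM added) Drosophila S3 cells treated with a concentration series. 20 uM Triacsin C defined 100% inhibition.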
Background: Quantitative high-throughput screening tests each substance at several concentrations.

[1] abbreviates: measured here: lipid fluorescence (Fed channel) AC50, cells fed with added oleic acid.
[2] abbreviates: measured here: cell number channel AC50, cells fed with added oleic acid.

In the case of `Cc1ccc(N2CC(C(=O)N3CCOCC3)CC2=O)cc1C` (stereo not drawn), the cell number change was -1.32%. The AC50 under setting [1] is 35500 nM [rising, single point].
For `CCC(=O)N(Cc1cc(=O)[nH]c2ccccc12)c1ccccc1C`, the cell number change amounted to 2.25%. For the same molecule, under setting [1], the AC50 was 130 nM [falling, full curve, poor fit].
As for `CCC(C)NC(=O)CSc1ccc(NC(C)=O)cc1` (stereo not drawn), the cell number change came to 8.05%. For the same molecule, the AC50 under setting [1] was 130 nM [falling, full curve, poor fit].
On to `CN(C)c1ccc(NC(=S)NC23CC4CC(CC(C4)C2)C3)cc1`, for which the cell number change was 9.52%.
On to `COC(=O)c1ccc(N2CCOCC2)c(F)c1`, for which the cell number change was 35.3%. Moreover, the AC50 under setting [2] was 29100 nM [rising, single point].
With `CCCC(=O)Nc1ccc2c(c1)C(=O)NC2=O`, the cell number change was -32.3%. The AC50 under setting [2] was 4.11 nM [falling, full curve, poor fit]. For the same molecule, the AC50 under setting [1] was 651 nM [falling, single point].
As to `CC(C)CCNC(=O)C1CCN(C(=O)N(C)C)CC1`, the cell number change is -26.9%. Further, the AC50 under setting [1] is 29100 nM [falling, single point].
On to `CCOC(=O)C1=C(C)NC(SC(C)=O)=NC1c1ccc(OC(C)=O)c(OC)c1` (stereo not drawn), for which the cell number change is 3.78%. Besides, under setting [2], the AC50 is 1300 nM [falling, full curve, poor fit].
Regarding `C=C(C)CNC(=S)N1CCNC(=O)C1CC(=O)OC` (stereo not drawn), the cell number change is -17.5%. Further, the AC50 under setting [1] was 3660 nM [falling, single point].
As to `COc1ccc(C(CCc2ccc(C)o2)NC(=O)Nc2ccc(OC)cc2OC)cc1` (stereo not drawn), the cell number change stood at 72.1%. Moreover, under setting [2], the AC50 is 1640 nM [rising, partial curve].
Regarding `CNS(=O)(=O)c1cc(NC(=O)CCNC(=O)c2ccco2)ccc1C`, the cell number change came out at 36.2%. Moreover, the half-maximal activity concentration (AC50) under setting [2] is 29100 nM [rising, partial curve, poor fit].
In the case of `O=C(NC1CCCC1)C(c1ccc(F)cc1)N(Cc1ccccc1)C(=O)c1csnn1` (stereo not drawn), the cell number change was -26.7%. In addition, the half-maximal activity concentration (AC50) under setting [1] was 6510 nM [falling, single point].
As to `Cc1nc(N2CCN(C)CC2)c2c(C)c(C(=O)Nc3ccc(C)c(F)c3)sc2n1`, the cell number change came out at 103%. For the same molecule, the AC50 under setting [1] is 580 nM [rising, single point].
Turning to `CCOc1ccc(C2=CC(=O)C[C@H](c3ccc(OC)cc3)C2)cc1`, the cell number change is -10.1%. Also, the AC50 under setting [1] was 65.1 nM [rising, partial curve, poor fit].
Regarding `CCOC(=O)c1c(C)[nH]c(C(=O)COC(=O)C(C)Oc2ccc(Cl)cc2Cl)c1C` (stereo not drawn), the cell number change came to 12.9%. For the same molecule, the AC50 under setting [1] is 103 nM [rising, full curve, poor fit].
Regarding `COc1ccc(-c2nnc(SCC(=O)OC3CCCCC3)o2)cc1OC`, the cell number change amounted to 36.9%. Also, the AC50 under setting [2] was 6.51 nM [rising, full curve, poor fit]. The AC50 under setting [1] is 411 nM [rising, full curve].

Broadly, the AC50 is the concentration giving half of the maximal activity seen.
